Data from the supplement of paper PMC12823440, “Inhibitors supercharge kinase turnover through native proteolytic circuits” (Nature, 2025).
Structures can show the parent of a compound that is named as a salt. This is one part of the list. The calls rarely recur for the same compound in another form.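 Kinases were expressed as nanoluciferase fusions in K562 cells and luminescence was read every 4 h between 2 and 18 h as percent of control, DMSO set to 100% and a positive control to 0%. A time point counts as decreased when the signal drops significantly (2 sigma). The hit call is the authors' own, does not follow from the count of time points alone, and its rule is not shown.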

The chains behind the UniProt entries cited, without tags or fusion partners. Where a name states a change or a piece, a line headed by the entry shows the natural chain unless it says otherwise.
UniProt Q06187: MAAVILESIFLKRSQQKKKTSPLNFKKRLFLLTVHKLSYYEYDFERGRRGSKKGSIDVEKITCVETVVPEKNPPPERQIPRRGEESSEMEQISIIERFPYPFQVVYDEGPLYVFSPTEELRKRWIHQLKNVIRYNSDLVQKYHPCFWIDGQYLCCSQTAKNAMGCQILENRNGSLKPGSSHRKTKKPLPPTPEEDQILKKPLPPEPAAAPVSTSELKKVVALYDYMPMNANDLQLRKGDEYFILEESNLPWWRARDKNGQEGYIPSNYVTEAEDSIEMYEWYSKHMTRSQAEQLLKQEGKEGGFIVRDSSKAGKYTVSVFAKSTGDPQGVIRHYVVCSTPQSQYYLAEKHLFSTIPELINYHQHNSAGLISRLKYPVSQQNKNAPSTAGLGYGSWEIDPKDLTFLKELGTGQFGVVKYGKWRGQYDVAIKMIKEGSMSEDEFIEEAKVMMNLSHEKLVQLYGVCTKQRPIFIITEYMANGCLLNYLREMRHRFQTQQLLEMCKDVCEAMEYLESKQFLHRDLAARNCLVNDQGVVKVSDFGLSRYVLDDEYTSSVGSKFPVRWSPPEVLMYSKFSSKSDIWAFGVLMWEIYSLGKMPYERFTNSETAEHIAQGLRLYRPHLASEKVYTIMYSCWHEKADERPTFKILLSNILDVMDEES
UniProt Q9UQM7, whole entry: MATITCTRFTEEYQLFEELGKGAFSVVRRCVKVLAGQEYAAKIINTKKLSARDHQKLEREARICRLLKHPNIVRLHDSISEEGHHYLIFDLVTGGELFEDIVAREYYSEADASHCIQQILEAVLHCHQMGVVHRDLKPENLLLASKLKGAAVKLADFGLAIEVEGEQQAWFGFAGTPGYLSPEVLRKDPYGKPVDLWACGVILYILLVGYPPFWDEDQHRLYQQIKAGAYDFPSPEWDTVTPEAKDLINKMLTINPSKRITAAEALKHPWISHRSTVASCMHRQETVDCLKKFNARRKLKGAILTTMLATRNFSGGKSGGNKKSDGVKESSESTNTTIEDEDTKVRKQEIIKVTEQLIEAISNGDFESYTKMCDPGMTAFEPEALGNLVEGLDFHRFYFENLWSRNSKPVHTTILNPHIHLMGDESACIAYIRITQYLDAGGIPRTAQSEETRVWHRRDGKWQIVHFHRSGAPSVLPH
UniProt Q13555: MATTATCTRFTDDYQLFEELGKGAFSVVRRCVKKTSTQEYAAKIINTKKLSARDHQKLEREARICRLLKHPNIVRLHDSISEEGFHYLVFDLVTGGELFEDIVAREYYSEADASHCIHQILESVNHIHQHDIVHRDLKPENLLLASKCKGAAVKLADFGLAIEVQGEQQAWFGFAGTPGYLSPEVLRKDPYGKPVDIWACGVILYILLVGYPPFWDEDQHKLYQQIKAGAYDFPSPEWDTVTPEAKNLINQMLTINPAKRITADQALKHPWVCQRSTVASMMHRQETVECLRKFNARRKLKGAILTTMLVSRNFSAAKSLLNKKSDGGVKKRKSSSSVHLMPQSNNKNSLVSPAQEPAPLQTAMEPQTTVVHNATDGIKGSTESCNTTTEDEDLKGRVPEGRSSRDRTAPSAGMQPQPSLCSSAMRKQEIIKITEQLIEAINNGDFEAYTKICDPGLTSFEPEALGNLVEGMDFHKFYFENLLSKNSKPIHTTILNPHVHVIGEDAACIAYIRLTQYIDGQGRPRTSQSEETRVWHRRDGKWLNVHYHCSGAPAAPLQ
UniProt Q15131: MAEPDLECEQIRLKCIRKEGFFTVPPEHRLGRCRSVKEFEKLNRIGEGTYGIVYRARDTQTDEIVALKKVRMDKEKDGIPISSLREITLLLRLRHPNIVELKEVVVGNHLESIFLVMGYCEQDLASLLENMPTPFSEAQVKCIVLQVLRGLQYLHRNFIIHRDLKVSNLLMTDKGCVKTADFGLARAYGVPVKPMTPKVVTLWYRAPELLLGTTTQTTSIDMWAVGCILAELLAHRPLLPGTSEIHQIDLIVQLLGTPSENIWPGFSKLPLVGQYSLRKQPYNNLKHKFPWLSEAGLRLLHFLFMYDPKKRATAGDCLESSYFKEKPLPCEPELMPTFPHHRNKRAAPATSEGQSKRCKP
UniProt Q00526: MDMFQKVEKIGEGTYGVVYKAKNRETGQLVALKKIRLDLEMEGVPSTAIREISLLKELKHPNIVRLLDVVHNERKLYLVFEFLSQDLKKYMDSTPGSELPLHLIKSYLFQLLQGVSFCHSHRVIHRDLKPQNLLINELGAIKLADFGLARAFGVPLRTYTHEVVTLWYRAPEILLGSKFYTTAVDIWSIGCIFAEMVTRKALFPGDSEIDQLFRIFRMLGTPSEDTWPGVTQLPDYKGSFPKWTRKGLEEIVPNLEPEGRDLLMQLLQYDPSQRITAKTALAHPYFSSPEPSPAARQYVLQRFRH
UniProt P11802: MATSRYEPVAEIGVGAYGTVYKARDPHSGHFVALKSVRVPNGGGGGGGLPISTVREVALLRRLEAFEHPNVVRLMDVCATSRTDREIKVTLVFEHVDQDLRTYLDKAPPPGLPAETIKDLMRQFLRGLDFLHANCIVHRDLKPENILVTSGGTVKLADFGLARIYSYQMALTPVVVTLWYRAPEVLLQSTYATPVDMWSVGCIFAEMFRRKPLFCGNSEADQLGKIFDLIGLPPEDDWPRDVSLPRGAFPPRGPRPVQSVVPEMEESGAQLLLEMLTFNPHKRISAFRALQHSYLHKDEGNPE
UniProt Q00535, whole entry, looked up: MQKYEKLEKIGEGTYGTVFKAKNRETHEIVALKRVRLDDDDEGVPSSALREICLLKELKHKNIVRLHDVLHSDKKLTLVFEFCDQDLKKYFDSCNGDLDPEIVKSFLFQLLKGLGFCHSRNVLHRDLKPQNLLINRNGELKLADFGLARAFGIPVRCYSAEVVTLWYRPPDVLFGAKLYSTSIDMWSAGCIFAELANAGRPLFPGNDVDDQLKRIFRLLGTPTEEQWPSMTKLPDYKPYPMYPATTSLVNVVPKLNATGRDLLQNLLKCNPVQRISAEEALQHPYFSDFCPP
UniProt Q00534, whole entry: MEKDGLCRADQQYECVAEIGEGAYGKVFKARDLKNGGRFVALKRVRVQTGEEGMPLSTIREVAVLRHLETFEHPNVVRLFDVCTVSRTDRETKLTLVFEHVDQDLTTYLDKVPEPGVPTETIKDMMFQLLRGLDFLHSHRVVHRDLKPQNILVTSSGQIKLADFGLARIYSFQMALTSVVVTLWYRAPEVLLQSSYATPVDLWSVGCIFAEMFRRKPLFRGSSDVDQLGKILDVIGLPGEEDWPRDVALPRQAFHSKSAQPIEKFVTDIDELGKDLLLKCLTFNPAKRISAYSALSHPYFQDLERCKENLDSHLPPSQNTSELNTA

What was measured:
Test in all cases: kinase-Nluc reporter destabilization hit call (1 = scored as downregulated) (binary); higher = compound decreases kinase abundance
Settings in all cases: K562, 2-18 h
BRAF_V600E = test system: BRAF_V600E
BTK = BTK (UniProt Q06187)
CAMK2A = CAMK2A (UniProt Q9UQM7)
CAMK2G = CAMK2G (UniProt Q13555)
CDK10 = CDK10 (UniProt Q15131)
CDK2 = CDK2 (UniProt P24941)
CDK3 = CDK3 (UniProt Q00526)
CDK4 = CDK4 (UniProt P11802)
CDK5 = CDK5 (UniProt Q00535)
CDK6 = CDK6 (UniProt Q00534)

Measured: kinase-Nluc reporter destabilization hit call

O=c1ncn2nc(Sc3ccc(F)cc3F)ccc2c1-c1c(Cl)cccc1Cl [Neflamapimod]
inactive: BRAF_V600E; 10 µM 0 | BTK; 10 µM 0 | CAMK2A; 10 µM 0 | CAMK2G; 10 µM 0 | CDK10; 10 µM 0 | CDK2; 10 µM 0 | CDK3; 10 µM 0 | CDK4; 10 µM 0 | CDK5; 10 µM 0 | CDK6; 10 µM 0

CN1CCN(c2nc(C3=C(c4c[nH]c5ccccc45)C(=O)NC3=O)c3ccccc3n2)CC1 [Sotrastaurin]
inactive: BRAF_V600E; 2.5 µM 0 | BTK; 2.5 µM 0 | CAMK2A; 2.5 µM 0 | CAMK2G; 2.5 µM 0 | CDK10; 2.5 µM 0 | CDK2; 2.5 µM 0 | CDK3; 2.5 µM 0 | CDK4; 2.5 µM 0 | CDK5; 2.5 µM 0 | CDK6; 2.5 µM 0

C[C@@H]1O[C@@H](Oc2c(-c3ccc(O)c(O)c3)oc3cc(O)cc(O)c3c2=O)[C@H](O)[C@H](O)[C@H]1O [Quercitrin]
inactive: BRAF_V600E; 10 µM 0 | BTK; 10 µM 0 | CAMK2A; 10 µM 0 | CAMK2G; 10 µM 0 | CDK10; 10 µM 0 | CDK2; 10 µM 0 | CDK3; 10 µM 0 | CDK4; 10 µM 0 | CDK5; 10 µM 0 | CDK6; 10 µM 0

NC1(C(=O)N[C@@H](CCO)c2ccc(Cl)cc2)CCN(c2nc[nH]c3nccc2-3)CC1 [Capivasertib]
inactive: BRAF_V600E; 10 µM 0 | BTK; 10 µM 0 | CAMK2A; 10 µM 0 | CAMK2G; 10 µM 0 | CDK10; 10 µM 0 | CDK2; 10 µM 0 | CDK3; 10 µM 0 | CDK4; 10 µM 0 | CDK5; 10 µM 0 | CDK6; 10 µM 0

CCCOc1ccc(C=C2SC(=O)NC2=O)cc1
inactive: BRAF_V600E; 10 µM 0 | BTK; 10 µM 0 | CAMK2A; 10 µM 0 | CAMK2G; 10 µM 0 | CDK10; 10 µM 0 | CDK2; 10 µM 0 | CDK3; 10 µM 0 | CDK4; 10 µM 0 | CDK5; 10 µM 0 | CDK6; 10 µM 0

C=CC(=O)Nc1cc2c(Nc3ccc(F)c(Cl)c3)ncnc2cc1OCCCN1CCOCC1 [Canertinib (dihydrochloride)]
inactive: BRAF_V600E; 2.5 µM 0 | BTK; 2.5 µM 0 | CAMK2A; 2.5 µM 0 | CAMK2G; 2.5 µM 0 | CDK10; 2.5 µM 0 | CDK2; 2.5 µM 0 | CDK3; 2.5 µM 0 | CDK4; 2.5 µM 0 | CDK5; 2.5 µM 0 | CDK6; 2.5 µM 0

CCn1c(=O)c(-c2cc(NC(=O)Nc3ccccc3)c(F)cc2Br)cc2cnc(NC)cc21 [Ripretinib]
inactive: BTK; 10 µM 0 | CAMK2A; 10 µM 0 | CAMK2G; 10 µM 0 | CDK10; 10 µM 0 | CDK2; 10 µM 0 | CDK3; 10 µM 0 | CDK4; 10 µM 0 | CDK5; 10 µM 0 | CDK6; 10 µM 0
active: BRAF_V600E; 10 µM 1

Cc1ccc(-n2nc(C(C)(C)C)cc2NC(=O)Nc2ccc(OCCN3CCOCC3)c3ccccc23)cc1 [Doramapimod]
inactive: BRAF_V600E; 10 µM 0 | BTK; 10 µM 0 | CAMK2A; 10 µM 0 | CAMK2G; 10 µM 0 | CDK10; 10 µM 0 | CDK2; 10 µM 0 | CDK3; 10 µM 0 | CDK4; 10 µM 0 | CDK5; 10 µM 0 | CDK6; 10 µM 0

Cc1cn(-c2cc(NC(=O)c3ccc(C)c(Nc4nccc(-c5cccnc5)n4)c3)cc(C(F)(F)F)c2)cn1 [Nilotinib]
inactive: BRAF_V600E; 2.5 µM 0 | BTK; 2.5 µM 0 | CAMK2A; 2.5 µM 0 | CAMK2G; 2.5 µM 0 | CDK10; 2.5 µM 0 | CDK2; 2.5 µM 0 | CDK3; 2.5 µM 0 | CDK4; 2.5 µM 0 | CDK5; 2.5 µM 0 | CDK6; 2.5 µM 0

O=C1Cc2c([nH]c3ccc(Br)cc23)-c2ccccc2N1 [Kenpaullone]
inactive: BRAF_V600E; 10 µM 0 | BTK; 10 µM 0 | CAMK2A; 10 µM 0 | CAMK2G; 10 µM 0 | CDK10; 10 µM 0 | CDK2; 10 µM 0 | CDK3; 10 µM 0 | CDK4; 10 µM 0 | CDK5; 10 µM 0 | CDK6; 10 µM 0

CC(=O)c1c(C)c2cnc(Nc3ccc(N4CCN(C(=O)CCCCCC(=O)N[C@H](C(=O)N5C[C@H](O)C[C@H]5C(=O)NCc5ccc(-c6scnc6C)cc5)C(C)(C)C)CC4)cn3)nc2n(C2CCCC2)c1=O
inactive: BRAF_V600E; 2.5 µM 0 | BTK; 2.5 µM 0 | CAMK2A; 2.5 µM 0 | CAMK2G; 2.5 µM 0 | CDK10; 2.5 µM 0 | CDK2; 2.5 µM 0 | CDK3; 2.5 µM 0 | CDK4; 2.5 µM 0 | CDK5; 2.5 µM 0 | CDK6; 2.5 µM 0

Reprinted from the results shown (2 entries):
C=CC(=O)Nc1cc2c(Nc3ccc(F)c(Cl)c3)ncnc2cc1OCCCN1CCOCC1 [Canertinib (dihydrochloride)]
inactive: BRAF_V600E; 2.5 µM 0 | BTK; 2.5 µM 0 | CAMK2A; 2.5 µM 0 | CAMK2G; 2.5 µM 0 | CDK10; 2.5 µM 0 | CDK2; 2.5 µM 0 | CDK3; 2.5 µM 0 | CDK4; 2.5 µM 0 | CDK5; 2.5 µM 0 | CDK6; 2.5 µM 0

CCn1c(=O)c(-c2cc(NC(=O)Nc3ccccc3)c(F)cc2Br)cc2cnc(NC)cc21 [Ripretinib]
inactive: BTK; 10 µM 0 | CAMK2A; 10 µM 0 | CAMK2G; 10 µM 0 | CDK10; 10 µM 0 | CDK2; 10 µM 0 | CDK3; 10 µM 0 | CDK4; 10 µM 0 | CDK5; 10 µM 0 | CDK6; 10 µM 0
active: BRAF_V600E; 10 µM 1

The results go on.

COc1cc2ncnc(Nc3ccc(F)c(Cl)c3)c2cc1OCCCN1CCOCC1 [Gefitinib]
inactive: BRAF_V600E; 10 µM 0 | BTK; 10 µM 0 | CAMK2A; 10 µM 0 | CAMK2G; 10 µM 0 | CDK10; 10 µM 0 | CDK2; 10 µM 0 | CDK3; 10 µM 0 | CDK4; 10 µM 0 | CDK5; 10 µM 0 | CDK6; 10 µM 0

COc1cc2ncnc(Nc3cccc(Br)c3)c2cc1OC
inactive: BRAF_V600E; 10 µM 0 | BTK; 10 µM 0 | CAMK2A; 10 µM 0 | CAMK2G; 10 µM 0 | CDK10; 10 µM 0 | CDK2; 10 µM 0 | CDK3; 10 µM 0 | CDK4; 10 µM 0 | CDK5; 10 µM 0 | CDK6; 10 µM 0

C=CC(=O)Nc1cc2c(Nc3ccc(F)c(Cl)c3)ncnc2cc1OCCCN1CCOCC1 [Canertinib]
inactive: BRAF_V600E; 10 µM 0 | BTK; 10 µM 0 | CAMK2A; 10 µM 0 | CAMK2G; 10 µM 0 | CDK10; 10 µM 0 | CDK2; 10 µM 0 | CDK3; 10 µM 0 | CDK4; 10 µM 0 | CDK5; 10 µM 0 | CDK6; 10 µM 0
